Experimental data published in PubChem BioAssay AID1347076 (National Center for Advancing Translational Sciences (NCATS), 2019).
Where “and” joins values, the source holds several entries; their conditions need not be identical. Equal entries are not always repeated. The campaign covered roughly 400,000 compounds. About 13,000 (3.2%) were called active. Inconclusive results, whose numbers are uncertain, are shown with a selection of clear calls. Calls come from the whole dose curve; as a rule, active = well fitted cell-killing curve with a large enough effect; inconclusive = small, poorly fitted or top-dose-only effect, or effect the other way; inactive = flat fitted curve, though single readings scatter. Where the call is inconclusive, the potency comes from a doubtful curve fit.

Test: qHTS assay for MDR1-selective chemotherapeutics: Primary screen using the drug-selected MDR subline cells KB-V1; note: nearly all actives have a fitted effect of over 60% in size
Settings: KB-V1 MDR cells viability, CellTiter-Glo, 72 h; activity change, negative = cytotoxicity: at 46.1 µM (top of the series)
Outline: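 KB-V1, DMEM (no phenol red) + 10% FBS; cpd pin-transferred, titration series; 72 h, 37 degrees C; CellTiter-Glo, luminescence. Data normalized, curve-fit.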
% is set by controls: 0 for no effect and ±100 for the full control effect; potency is the fitted concentration of half-maximal effect.

Row | SMILES | Potency | activity change, negative = cytotoxicity
1 | O=C(Cn1cnc2c(nnn2Cc2ccc(F)cc2)c1=O)N1CCCCC1 | inconclusive: 14.6 µM [cytotoxic, partial curve, poor fit] | 
2 | CCn1nc(C(=O)OCC(=O)c2c[nH]c3ccccc23)c2ccccc2c1=O | inconclusive: 18.4 µM [cytotoxic, single point] | 
3 | Cc1ccc(C)c(C(C)NC(=S)NCc2ccc(F)cc2)c1 (centres undefined) | inconclusive: 18.4 µM [cytotoxic, single point] | 
4 | N#CCC(=O)Nc1ccc(C(=O)NCCC(c2ccccc2)c2ccccc2)cc1 | inactive | 
5 | Brc1ccccc1OCCCOc1cccc2cccnc12 | inconclusive: 29.1 µM [cytotoxic, single point] | 
6 | CC(C)n1c(CN(C)Cc2ccccc2)nc2c1c(=O)n(C)c(=O)n2C | inconclusive: 11.6 µM [cytotoxic, partial curve, poor fit] | 
7 | Cc1c(C(=O)C(=O)N2c3ccccc3CC2C)c2ccccc2n1C (centres undefined) | active: 20.6 µM | 
8 | CCn1c(SCC(=O)NCC2CCCO2)nc2ccccc21 (centres undefined) | inactive | 
9 | Cc1ccc(NC(=O)CSc2nc3nn(-c4ccccc4)c(=O)c-3c3n2CCCCC3)cc1F | inactive | 
10 | COc1cc(C2=NOC(C(=O)NC3CCCCC3)C2)cc(OC)c1OC (centres undefined) | active: 9.2 µM | 
11 | O=C(Cc1ccccc1)Nc1ccc(NC(=O)c2ccccc2)nc1 | inconclusive: 14.6 µM [cytotoxic, single point] | 
12 | O=[N+]([O-])c1ccc(Oc2cccc(F)c2)c2ccncc12 | inconclusive: 18.4 µM [cytotoxic, single point] | 
13 | CCc1cccc(C)c1NC(=S)N(CCN(C)C)C(C)c1ccco1 (centres undefined) | inconclusive: 9.2 µM [cytotoxic, partial curve, poor fit] | 
14 | CCCCCn1c(Sc2ccccc2)nc2c1c(=O)[nH]c(=O)n2C | inconclusive: 9.2 µM [cytotoxic, partial curve, poor fit] | 
15 | COc1ccnc(N=CNOCc2cccc(C(F)(F)F)c2)c1C#N | inconclusive: 1.03 µM [cytotoxic, full curve] | 
16 | CCOC(=O)/C=C/C(=O)N1CCN(C(=O)/C=C/C(=O)OCC)CC1 | inactive | 
17 | CCc1nc2scc(-c3ccc(C)cc3)c2c(=O)n1N | inconclusive: 29.1 µM [cytotoxic, partial curve, poor fit] | 
18 | COc1ccc(C(=O)N2CCCCC2c2cc(C(=O)Nc3ccc(F)c(Cl)c3)no2)cc1 (centres undefined) | inactive | 
19 | CCCS(=O)(=O)N1CCN(CCCc2ccccc2)CC1 | inconclusive: 29.1 µM [cytotoxic, single point] | 
20 | CC(Oc1ccc(Cl)cc1Cl)c1nc(-c2ccc(NC(=O)c3ccco3)cc2)no1 (centres undefined) | active: 5.8 µM | 
21 | CCOC(=O)C1C(c2ccccc2)N(C)OC1(O)C(F)(F)F (centres undefined) | inconclusive: 25.9 µM [rising, partial curve, poor fit] | 
22 | CCn1cc(C(=O)N2CCN(c3ccccc3OC)CC2)c(=O)c2cc(S(=O)(=O)N3CCC(C)CC3)ccc21 | inconclusive: 8.2 µM [rising, partial curve] | 
23 | Cc1ccc(C(=O)Nc2ccc(N3CCN(C(=O)c4ccco4)CC3)cc2)c(Cl)c1 | inconclusive: 14.6 µM [cytotoxic, partial curve] | 

Reprinted from the listing for reference:
Row | SMILES | Potency | activity change, negative = cytotoxicity
9 | Cc1ccc(NC(=O)CSc2nc3nn(-c4ccccc4)c(=O)c-3c3n2CCCCC3)cc1F | inactive | 
10 | COc1cc(C2=NOC(C(=O)NC3CCCCC3)C2)cc(OC)c1OC (centres undefined) | active: 9.2 µM | 
11 | O=C(Cc1ccccc1)Nc1ccc(NC(=O)c2ccccc2)nc1 | inconclusive: 14.6 µM [cytotoxic, single point] | 

More entries follow.

Row | SMILES | Potency | activity change, negative = cytotoxicity
24 | Cc1cc(NC(=O)c2sccc2C)n(-c2nc3ccccc3[nH]2)n1 | inconclusive: 20.6 µM [cytotoxic, partial curve, poor fit] | 
25 | C#CCOc1ccc2ccccc2c1/C=C(/C#N)c1ccc(C(=O)O)cc1 | inactive | 
26 | Cn1c(N2CCN(C(c3ccccc3)c3ccccc3)CC2)nc2c1c(=O)[nH]c(=O)n2C | active: 20.6 µM | 
27 | CCC(C(=O)NCCc1cc(OC)ccc1OC)n1nc(C)c2sc3ccccc3c2c1=O (centres undefined) | inconclusive: 18.4 µM [cytotoxic, single point] | 
28 | CCCCC(=O)N/N=C/c1ccc(N2CCOCC2)c([N+](=O)[O-])c1 | inactive | 
29 | CN1CCN(C2=Cc3ccc(Cl)cc3Sc3ccc(F)cc32)CC1 | inconclusive: 11.6 µM [cytotoxic, single point] | 
30 | Cc1cc(C)nc(N/N=C/C2=C(N3CCOCC3)C(=C/c3ccccc3)/CC2)n1 | active: 2.31 µM | 
31 | O=S(=O)(Cc1ccc(Cl)cc1)Nc1ccc(Cl)cn1 | inconclusive: 29.1 µM [rising, single point] | 
32 | CN(C)c1ccc(C(CNS(=O)(=O)c2ccc3ccccc3c2)c2c[nH]c3ccccc23)cc1 (centres undefined) | active: 14.6 µM | 
33 | CCC1=NN(C(=O)c2ccc(Br)cc2)C(O)(c2ccccc2)C1 (centres undefined) | inconclusive: 29.1 µM [cytotoxic, single point] | 
34 | CN(Cc1ccccc1)c1ccc(-c2nc(-c3cccnc3)no2)cc1[N+](=O)[O-] | inconclusive: 23.1 µM [rising, single point] | 
35 | CN(C(=O)COC(=O)/C=C/c1cccs1)c1c(N)n(Cc2ccccc2)c(=O)[nH]c1=O | inactive | 
36 | Cc1nn(-c2cc(C(F)(F)F)ccc2Cl)c2nc(C(F)(F)F)[nH]c(=O)c12 | inconclusive: 16.4 µM [cytotoxic, partial curve, poor fit] | 
37 | CN(C)/C=C/C(=O)c1ccc(-n2cccc2)cc1 | inconclusive: 20.6 µM [cytotoxic, single point] | 
38 | CCc1ccc(/C=c2\s/c(=C\C(=O)C(C)(C)C)[nH]c2=O)cc1 | inconclusive: 29.1 µM [cytotoxic, single point] | 
39 | Cn1cnnc1SCC(=O)NNC(=O)c1ccc(Cl)cc1 | inconclusive: 16.4 µM [rising, partial curve, poor fit] | 
40 | Cc1ccc(C(=O)CSc2nnc(CNc3nc(-c4ccccc4)cs3)n2C)cc1 | inactive | 
41 | Cc1c(C(=O)N2CCN(S(=O)(=O)c3ccccc3)CC2)oc2ccccc12 | inactive | 
42 | N/C(=N/OC(=O)c1ccccc1Cl)c1ncc([N+](=O)[O-])s1 | inconclusive: 29.1 µM [cytotoxic, single point] | 
43 | C=C1SC(Nc2c(C)cccc2C)=NC12CCCCC2 | inconclusive: 20.6 µM [cytotoxic, single point] | 
44 | Cc1ccc2c(c1)C(O)(C1COC(C)(C)CC1=O)C(=O)N2C (centres undefined) | inactive | 
45 | CCc1cccc(NC(=O)C2CCCN(S(=O)(=O)c3ccc4[nH]c(=O)ccc4c3)C2)c1 (centres undefined) | inconclusive: 16.4 µM [rising, single point] | 
46 | CN(CC(=O)Nc1ncn[nH]1)S(=O)(=O)c1ccc(Cl)cc1 | inconclusive: 29.1 µM [rising, single point] | 

Row | SMILES | Potency | activity change, negative = cytotoxicity
47 | CN=c1scc(-c2ccc(OC)cc2)n1/N=C(\C)c1cccnc1 | inconclusive: 18.4 µM [cytotoxic, partial curve] | 
48 | Cc1nn2c(-c3cccnc3)ccnc2c1-c1ccccc1 | inconclusive: 8.2 µM [cytotoxic, partial curve, poor fit] | 
49 | COc1ccc(/C=C2/N=C(SC3CCOC3=O)N(c3cccc(OC)c3)C2=O)cc1 (centres undefined) | inactive | 
50 | CC1(C)CC(=O)C(C(C2=C(O)CC(C)(C)CC2=O)c2cccs2)C(=O)C1 (centres undefined) | inconclusive: 29.1 µM [cytotoxic, single point] | 
51 | Cc1ccc(OCc2cc(=O)n3cc(C)sc3n2)c(C)c1 | inactive | 
52 | Cn1c(=O)c2c(nc(N3CCN(c4ccccn4)CC3)n2Cc2ccccc2Cl)n(C)c1=O | inconclusive: 0.58 µM [cytotoxic, partial curve, poor fit] | 
53 | O=C(O)c1ccc(N/N=C/c2ccc(-c3ccc(Cl)cc3Cl)o2)cc1 | inactive | 
54 | COc1ccc(S(=O)(=O)c2cn(C)c3cc(N4CCOCC4)c(F)cc3c2=O)cc1 | inactive | 
55 | Cc1nc(Nc2cccc(C(C)O)c2)c2nnn(Cc3ccccc3F)c2n1 (centres undefined) | inconclusive: 18.4 µM [cytotoxic, partial curve] | 
56 | O=C(COc1ccccc1)Nc1c(Cl)ccc2nsnc12 | inconclusive: 23.1 µM [cytotoxic, partial curve] | inconclusive: -8.24%
57 | O=C(NCCCCCCNC(=O)C1CCCC1)C1CCCC1 | inactive | 
58 | CCCCOC(=O)C(C#N)c1nc2ccccc2nc1N1CCN(Cc2ccc3c(c2)OCO3)CC1 (centres undefined) | inconclusive: 25.9 µM [cytotoxic, single point] | 
59 | CCC(=O)Nc1cccc(C(=O)/C=C/c2cc(Br)ccc2OC)c1 | active: 18.4 µM | 
60 | O=CNCCCc1nc2ccccc2n1Cc1ccccc1 | inconclusive: 20.6 µM [cytotoxic, single point] | 
61 | CCCCN1CN(Cc2ccccc2)CNC1=S | inconclusive: 20.6 µM [cytotoxic, single point] | 
62 | CC(C)c1nnc(NC(=O)C2c3ccccc3Oc3ccccc32)s1 | inactive | 
63 | O=C(COc1cc(F)ccc1[N+](=O)[O-])N1N=C(c2cccs2)CC1c1ccco1 (centres undefined) | inconclusive: 29.1 µM [cytotoxic, single point] | 
64 | CN(C1=C(NC(=O)c2ccc(Cl)cc2)C(=O)c2ccccc2C1=O)c1ccccc1 | inconclusive: 20.6 µM [cytotoxic, single point] | 
65 | CCOC(=O)C1=C(C)C(c2cccc(Oc3ccccc3)c2)NC(=S)N1 (centres undefined) | inconclusive: 23.1 µM [cytotoxic, single point] | 
66 | Cc1ccc(C)c(N(C)S(=O)(=O)c2ccc3[nH]cc(C(=O)NC4CCCC4)c(=O)c3c2)c1 | inactive | 
67 | COc1cc(-c2noc(C)c2C#Cc2nccn2C)cc(OC)c1OC | active: 4.61 µM and inconclusive: 7.31 µM [cytotoxic, partial curve, poor fit] | 
68 | Cc1cccc(NCC(=O)N/N=C/c2cccc(Br)c2)c1 | inconclusive: 29.1 µM [rising, single point] | 
